Here are results for one compound from patent US20100234238A1, “METHOD FOR PROFILING KINASE INHIBITORS” (Janssen Pharmaceutica N V, priority 2006, published 2010).

The structures appear in SMILES notation.

Test in all cases: PAMCHIP96 (140-peptide array) profiling of xenograft tumor lysates in absence or presence of MTKI
What all share (format): biochemical

The test system of data set [1] is tyrosine kinase activity in xenograft tumor lysates. Set-up: key: R = Responder to MTKI; NR = Non-Responder to MTKI. The note with it: 21 signature peptides. How it is done:
(§1) 100 mg of frozen tumor or tissue blocks, or sections, are lysed in 1 ml of M-PER buffer (PIERCE) containing phosphatase and protease inhibitors (HALT, PIERCE). The suspension is mixed using a ULTRA-TURRAX blender (IKA werke), and centrifuged twice for 10 minutes at 12 000×g. Supernatant lysates are filtered through a 0.2 micrometer filter (Anotop 0.2 μm anopore filter; Whatmann). Lysates are flash frozen in liquid nitrogen and stored at −80C.
(§2) Just prior to the PAMCHIP experiment, total protein content is quantitated in the lysates and lysates are diluted to 1 mg/ml in a total volume of 200 μl, with M-PER phosphatase and protease inhibitors (HALT, PIERCE). 10 μg of total lysate (corresponding to 10 μl) will be used per well on the PAMCHIP96.
(§3) To all 200 μl lysates 10 units of benzonase (Novagen) is added and lysates are further incubated for 30 min on ice and next centrifuged for 10 minutes at 12 000×g. The supernatant is then 1:1 diluted with compound or DMSO diluted to the appropriate concentration in water, and lysates are further incubated exactly 60 min on ice. Meanwhile, a PAMCHIP96 tyrosine peptide chip (PAMGENE) is blocked with 2% BSA (filtered through a 0.2 μm anopore filter; Whatmann) using the standard setting of a PAMSTATION96 (PAMGENE).
(§4) The composition of the kinase buffer is as follows: 1×ABL buffer (NEB), 0.5 mg/ml BSA (from 10 mg/ml NEB stock), 100 μM ATP (dissolved and diluted in 1×ABL buffer), 5 μg/ml PY20-FITC (ExAlpha Biologicals, azide-free preparation). A twofold concentrated kinase buffer is prepared chilled on ice, DMSO or compound is added as appropriate, and the solution is added 1:1 to the (compound treated) ice cold lysates, and immediately applied to a tyrosine peptide PAMCHIP96. The assay is run on a PAMSTATION96 according to standard procedures: after loading of the plate, solution is pumped once onto the wells, a first exposure is read (150 mSec) and then a kinetic reading program (reading every 5 min for 150 mSec) is run for 60 min. Lysates are run in 6 technical replicates for each condition; replicates are always applied horizontally next to each other to avoid vertical strip effects of the chip.
The data (spot images) are further quantified and linked to the peptide identities using EVOLVE PAMGRID software (PAMGENE). The quantified data are then fit to a curve using CurveFitHT software (PAMGENE) using the Vinip2 curve fitting algorithm, applied on the first 30 min of the assay; the initial velocity is derived at the first kinetic time point read. All subsequent data analyses were done on initial velocities (Vini) using the software packages Omniviz and R (Ihaka, R. and Gentlemen, R. (1996) R: a language for data analysis and graphics. J. Comput. Graph. Stat., 5, 299-314). […]

The test system is the same in data set [2]. The arrangement: key: R: A responder is predicted when minimally 4 peptides have a ratio <0.8; NR = Non-Responder to MTKI. The method, then:
as §1, §2, §3, §4
The data (spot images) are further quantified and linked to the peptide identities using EVOLVE PAMGRID software (PAMGENE). The quantified data are then fit to a curve using CurveFitHT software (PAMGENE) using the Vinip2 curve fitting algorithm, applied on the first 30 min of the assay; the initial velocity is derived at the first kinetic time point read. All subsequent data analyses were done on initial velocities (Vini) using the software packages Omniviz and R (Ihaka, R. and Gentlemen, R. (1996) R: a language for data analysis and graphics. J. Comput. Graph. Stat., 5, 299-314).
After replacing the Vini's lower than 0.1 by 0.1, all Vini's were log 2-transformed to approach normality. […] This test was done for each peptide separately using a mixed model (Littell, R. C., Milliken, G. A., Stroup, W. W., Wolfinger, R. D. 1996. SAS system for mixed models. Cary, N. C.: SAS Institute Inc.) allowing the incorporation of both technical variation (i.e., the variation across replicates) and biological variation (i.e., the variation among the various responding and non-responding cell lines or tumors). Variation between cell lines or tumors in Vini and in treatment effect on Vini was modeled respectively by random intercepts and random compound effects per cell line or tumor, nested in response status. The difference in compound-induced reduction in Vini between responding and non-responding cell lines or tumors was tested through the interaction between compound treatment and response status, both modeled as fixed effects.

For data set [3] the test system is unchanged. Set-up: key: A Responder is predicted when minimally 7 peptides have a ratio <0.8; NR = Non-Responder to MTKI. The note with it: PC3 xenograft tumor lysate; 21 peptides of 140-peptide array. How it is done: as §1
Just prior to the PAMCHIP experiment, total protein content is quantitated in the lysates and lysates are diluted to 1 mg/ml in a total volume of 200 μl, with M-PER phosphatase and protease inhibitors (HALT, PIERCE). 10 μg of total lysate (corresponding to 10 μl) will be used per well on the PAMCHIP96. […]
The composition of the kinase buffer is as follows: 1×ABL buffer (NEB), 0.5 mg/ml BSA (from 10 mg/ml NEB stock), 100 μM ATP (dissolved and diluted in 1×ABL buffer), 5 μg/ml PY20-FITC (ExAlpha Biologicals, azide-free preparation). […] The assay is run on a PAMSTATION96 according to standard procedures: after loading of the plate, solution is pumped once onto the wells, a first exposure is read (150 mSec) and then a kinetic reading program (reading every 5 min for 150 mSec) is run for 60 min. […]
The data (spot images) are further quantified and linked to the peptide identities using EVOLVE PAMGRID software (PAMGENE). […]

As to `COc1cc2ncnc3c2cc1OCCCCCN(C)Cc1ccc(Br)cc1N3` [MTKI, 4,6-ethanediylidenepyrimido[4,5-b][6,1,12]benzoxadiazacyclopentadecine, 17-bromo-8,9,10,11,12,13,14,19-octahydro-20-methoxy-13-methyl-], the response prediction entry was “R” in data set [1] (A431 xenograft tumor lysate); “R” in data set [1] (DU145 xenograft tumor lysate); “R” in data set [1] (H322 xenograft tumor lysate); “R” in data set [1] (H3255 xenograft tumor lysate); “NR” in data set [2] (BT474 xenograft tumor lysate, 21 signature peptides); “NR” in data set [2] (H441 xenograft tumor lysate, 21 peptides of 140-peptide array). Also, the response prediction result is given as “NR” in data set [2] (H460 xenograft tumor lysate, 21 peptides of 140-peptide array); “NR” in data set [2] (H1703 xenograft tumor lysate, 21 peptides of 140-peptide array); “NR” in data set [2] (HT29 xenograft tumor lysate, 21 peptides of 140-peptide array); “NR” in data set [2] (SKOV3 xenograft tumor lysate, 21 peptides of 140-peptide array); “NR” in data set [2] (SUM149 xenograft tumor lysate, 21 signature peptides); “R” in data set [3].
